Measured values published in PubChem BioAssay AID504444 (National Center for Advancing Translational Sciences (NCATS), 2011).
Several values for one entry are separate records, joined by “and”; a condition that tells them apart may be missing. Equal values may be shown once. The campaign covered roughly 360,000 compounds. About 7,500 (2.1%) were called active. The inconclusive results got no clear call from the source; some entries with a clear call stand among them for comparison. The call rests on the fitted dose curve; in most records, active means well fitted inhibition curve with a large enough effect; inconclusive means small, poorly fitted or top-dose-only effect, or effect the other way; inactive means flat fitted curve, though single readings scatter. Where the call is inconclusive, the potency comes from a doubtful curve fit. A structure can be active in one record and inactive in another.

Experiment: Nrf2 qHTS screen for inhibitors; further: nearly all actives have a fitted effect of over 60% in size
Conditions: A549 ARE-Fluc reporter, luciferase luminescence, 18-24 h; activity change, negative = inhibition: at 46 µM (top of the series)
Outline: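 Concentration-response testing used A549 ARE_Fluc cells at 5000 cells/well. Following an 18-24 h compound incubation, viability was read by fluorescence (Ex 405/Em 525) and luciferase output by luminescence.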
On the % scale 0 is the no-effect control and ±100 the full control effect; potency means the concentration at half of the fitted maximal effect.

Row | Compound | activity change, negative = inhibition | Potency
1 | Cc1ccc(OCCCC(=O)Nc2nc3ccccc3[nH]2)cc1 | inactive: 9.82% | –
2 | O=C(Nc1ccc2snnc2c1)Nc1cccc2ccccc12 | – | active: 16.4 µM
3 | COc1cccc(-c2nn(C)c3sc(C(=O)NCc4ccc(OC)cc4OC)cc23)c1 | – | inconclusive: 29.1 µM [falling, single point]
4 | CC(C)(C)c1cc[n+](C2=C([O-])c3ccccc3C(=O)/C2=N\S(=O)(=O)c2cccs2)cc1 | – | inconclusive: 29.1 µM [falling, single point]
5 | COc1cc(NC(=O)c2nn(C)c3c2COc2ccccc2-3)cc(OC)c1OC | – | inconclusive: 16.4 µM [activator, partial curve, poor fit]
6 | COc1ccc(CCNC(=O)c2ccc(Cn3c(SCc4ccccc4)nc4cccnc43)cc2)cc1 | inactive: -15.2% | –
7 | CC(C)c1cc(-c2nc(-c3ccc(Cl)cc3)no2)n[nH]1 | inactive: 28.6% | –
8 | COc1ccccc1C(=O)Nc1ccc2c(c1)CN(C(=O)CSC)CC2 | – | inconclusive: 0.259 µM [falling, full curve, poor fit]
9 | Cc1sc(NC(=O)CCCC(=O)O)c(C(N)=O)c1-c1ccccc1 | – | inconclusive: 20.6 µM [falling, partial curve, poor fit]
10 | COc1cccc(-c2nc(-c3ccc(NC(=O)c4ccncc4)cc3)no2)c1 | – | inconclusive: 20.6 µM [falling, single point]
11 | O=C(Nc1ccc(S(=O)(=O)NCCc2ccccc2)cc1)c1ccncc1 | – | active: 20.6 µM
12 | COc1cc(Nc2nc(-c3ccc(OC)c(OC)c3)nc3ccccc23)cc(OC)c1 | – | inconclusive: 11.6 µM [falling, partial curve, poor fit]
13 | CN(c1ccc(O)cc1)c1nc(-c2cccnc2)cs1 | – | inconclusive: 23.1 µM [activator, partial curve]
14 | Cc1nc(NC(=O)/C=C/c2ccccc2)sc1C(=O)Nc1ccccc1 | inactive: -23.7% | –
15 | Cc1sc2ncnc(N3CCC(C(=O)N(C)CC(=O)Nc4ccccc4Cl)CC3)c2c1C | – | active: 23.1 µM
16 | CSc1nc(N2CCN(Cc3ccc4c(c3)OCO4)CC2)c2ccccc2n1 | – | inconclusive: 5.17 µM [falling, partial curve, poor fit]
17 | Cc1ccc(NC(=O)OCC(F)(F)C(F)F)cc1NC(=O)OCC(F)(F)C(F)F | – | active: 18.4 µM
18 | CN(C)S(=O)(=O)Nc1cccc(NC(=O)CC23CC4CC(CC(C4)C2)C3)c1 | inactive: -25% | –
19 | CC(C)[C@H](NC(=O)OC(C)(C)C)c1nnc(SCC(=O)Nc2ccc(Br)cc2)o1 | – | inconclusive: 14.6 µM [falling, partial curve]
20 | O=C(CSc1nnc(-c2ccco2)c(-c2ccco2)n1)c1ccccc1 | – | inconclusive: 5.8 µM [activator, partial curve, poor fit]
21 | CC1(C)CC(=O)c2c(n(S(=O)(=O)c3ccccc3)c3ccc(NS(=O)(=O)c4ccccc4)cc23)C1 | – | inconclusive: 11.6 µM [falling, partial curve]
22 | Cc1nc2nc(NCc3ccc(Br)cc3)[nH]n2c(=O)c1Cc1ccccc1 | – | inconclusive: 29.1 µM [falling, single point]
23 | Cc1ccc(C)c(NS(=O)(=O)c2cc(C(=O)Nc3cccc(N(C)S(C)(=O)=O)c3)ccc2C)c1 | – | inconclusive: 20.6 µM [falling, single point]

Row | Compound | activity change, negative = inhibition | Potency
24 | O=C1CCCC2=C1C1(CCCC1)N=C(Nc1nc3ccccc3n1Cc1ccccc1)N2 | – | active: 16.4 µM
25 | CC(=NNC(=S)N1CC2CCC(CC2)C1)c1cnccn1 | – | inconclusive: 29.1 µM [activator, single point]
26 | NC(=O)c1ccc(-c2noc(-c3cccc(Cl)c3)n2)cc1 | – | inconclusive: 2.31 µM [activator, full curve, poor fit]
27 | COc1ccc(O)c(-c2cc(-c3ccccc3Cl)[nH]n2)c1 | inactive: -17.2% | –
28 | CC(=O)c1cccc(NC(=O)c2cc3ccccn3n2)c1 | inactive: 26.4% | –
29 | COc1ccc(CNc2ncc(-c3ccc(F)cc3)n2C)c2ccccc12 | – | active: 20.6 µM
30 | O=C(Nc1nc2cc3c(cc2s1)OCCO3)C1CCCCC1 | – | inconclusive: 3.66 µM [activator, partial curve, poor fit]
31 | COc1ccc(-c2csc(NC(=O)c3c(C)noc3C)n2)cc1F | – | inconclusive: 23.1 µM [falling, single point]
32 | CCc1nnc(NC(=O)Cc2ccc(S(=O)(=O)N3CCCCC3)cc2)s1 | – | active: 20.6 µM
33 | CC(=O)n1cc(N(C(=O)CCl)c2ccc(C)cc2)c2ccccc21 | inactive: -12% | –
34 | O=C(CS(=O)(=O)Cc1ccccc1)N1CCc2ccccc21 | – | inconclusive: 25.9 µM [activator, partial curve, poor fit]
35 | CCCSc1nnc(NC(=O)Nc2ccc(F)cc2)s1 | – | inconclusive: 29.1 µM [falling, single point]
36 | O=C(CN1C2CCCC1CC(NC(=O)c1ccco1)C2)Nc1ccccc1C(F)(F)F (configuration not stated) | – | inconclusive: 7.31 µM [falling, partial curve, poor fit]
37 | Cc1ccc(N(CC2=NCCN2)c2cccc(O)c2)cc1 | – | inactive and active: 7.31 µM
38 | Cn1ncc(Cl)c1C(=O)Nc1nc2ccc(Cl)cc2s1 | – | inconclusive: 25.9 µM [activator, single point]
39 | Cc1ccc(S(=O)(=O)NCCC(=O)Nc2ccc(Cl)c(Cl)c2)cc1 | inactive: -5.71% | –
40 | CCc1nc(SCC(=O)Nc2ccc(N(C)C)cc2)n[nH]1 | – | inconclusive: 29.1 µM [activator, single point]
41 | COc1ccc(/C=C/C(O)=C2/C(=O)NC3(C)CC2c2ccccc2O3)c(OC)c1OC (configuration not stated) | – | inconclusive: 18.4 µM [falling, single point]
42 | Cn1nnnc1SCc1nnc(-c2ccc(Cl)cc2)o1 | – | inconclusive: 29.1 µM [activator, single point]
43 | Cc1ccc(OCc2nnc(SCC(=O)Nc3cccc4ccccc34)n2-c2ccccc2)cc1 | – | inconclusive: 16.4 µM [falling, partial curve, poor fit]
44 | CC(=O)NC(NC(=S)Nc1ccc(N=Nc2ccccc2C)cc1C)C(Cl)(Cl)Cl (configuration not stated) | – | inconclusive: 20.6 µM [falling, partial curve, poor fit]
45 | O=S(=O)(N/N=C/c1ccc2c(c1)OCO2)c1ccc(Br)cc1 | – | inconclusive: 3.66 µM [activator, partial curve, poor fit]
46 | CCCC(=O)Nc1ccc2oc(-c3ccc(O)c(Br)c3)nc2c1 | – | inconclusive: 9.2 µM [activator, partial curve]

Row | Compound | activity change, negative = inhibition | Potency
47 | CCCN(CC(=O)Nc1ccccc1C)C(=O)c1ccc2[nH]c3c(c2c1)CC(C)CC3 (configuration not stated) | – | active: 20.6 µM
48 | O=C(CSc1nc2nc(-c3cccs3)cc(C(F)(F)F)c2c(=O)[nH]1)Nc1c(F)c(F)c(F)c(F)c1F | – | inconclusive: 16.4 µM [falling, single point]
49 | CCCCC(CC)CNC(=O)CCCCCn1c(=O)[nH]c2ccsc2c1=O (configuration not stated) | inactive: 3.73% [at 9.27 µM] | –
50 | O=C1CCN(Cc2ccccc2)C=C1c1ccc2ccccc2c1 | – | inconclusive: 20.6 µM [activator, partial curve]
51 | CCOc1ccc(NC(=O)COn2nnc3ccc(S(=O)(=O)N4CCOCC4)cc32)cc1 | – | inconclusive: 29.1 µM [falling, single point]
52 | CC1Cc2ccccc2N1S(=O)(=O)c1cccc(C(=O)NC2CC2)c1 (configuration not stated) | – | inconclusive: 16.4 µM [falling, single point]
53 | Cc1cc(NC(=O)CSc2nc3ccsc3c(=O)n2Cc2ccccn2)n[nH]1 | – | inconclusive: 3.66 µM [activator, full curve]
54 | CC(C)[C@H](NC(=O)c1ccccc1)C(=O)OCC(=O)NCc1ccc(F)cc1 | – | inconclusive: 32.6 µM [activator, partial curve, poor fit]
55 | CCOc1ccc(-c2noc(CCC(=O)O)n2)cc1 | – | active: 3.26 µM
56 | O=C(CSc1nc2c(oc3ccccc32)c(=O)n1-c1ccccc1)Nc1ccc(F)c(Cl)c1 | inactive: -11% | –
57 | O=S1(=O)N=C(Sc2ccc3c(c2)OCCO3)c2ccccc21 | inactive: -29.9% | –
58 | COc1ccc(OC)c(NC(=O)C2=C(C)C(=O)OC23CCN(C(C)C)CC3)c1 | – | inconclusive: 23.1 µM [activator, partial curve]
59 | Cc1[nH]c2ccccc2c1C(=O)CSc1nc2cc(S(=O)(=O)N3CCCCC3)ccc2o1 | – | inconclusive: 8.2 µM [falling, partial curve]
60 | COc1ccc(CCNC(=O)C2CCCN(Cc3nc(-c4cccc(Cl)c4)oc3C)C2)cc1OC (configuration not stated) | – | inconclusive: 29.1 µM [falling, single point]
61 | CC(C)Nc1ncnc2c1cnn2-c1ccccc1 | – | inconclusive: 0.164 µM [activator, full curve, poor fit]
62 | Cc1ccc(-n2nnnc2SCC(=O)c2c(N)n(C3CC3)c(=O)[nH]c2=O)c(C)c1 | – | inconclusive: 32.6 µM [falling, single point]
63 | CN(C)c1ncc(C2=C(Cl)C(=O)C(N3CCCC3)=C(Cl)C2=O)s1 | inactive: 24.5% | –
64 | COc1ccc(OC)c(NC(=O)C2CCN(S(=O)(=O)c3ccc4c(c3)CC(C)N4C(C)=O)CC2)c1 (configuration not stated) | – | inconclusive: 13 µM [falling, partial curve, poor fit]
65 | Cc1sc(N)c(C#N)c1C | inactive: 1.37% | –
66 | COc1ccc(OC)c(NC(=O)C(C)n2c(=O)c(-c3ccccc3NC(C)=O)nc3ccccc32)c1 (configuration not stated) | inactive: 20.2% | –
67 | COCCn1c(C(F)(F)F)ccc(NC(=O)c2ccccc2)c1=O | – | inconclusive: 7.31 µM [activator, partial curve]

Entries of single compounds as entered above.
`CCOc1ccc(-c2noc(CCC(=O)O)n2)cc1` as listed: Potency: active: 3.26 µM
`COc1ccc(CCNC(=O)C2CCCN(Cc3nc(-c4cccc(Cl)c4)oc3C)C2)cc1OC` (configuration not stated) as listed: Potency: inconclusive: 29.1 µM [falling, single point]
`O=S1(=O)N=C(Sc2ccc3c(c2)OCCO3)c2ccccc21` as listed: activity change, negative = inhibition: inactive: -29.9%
`COc1ccc(OC)c(NC(=O)C2CCN(S(=O)(=O)c3ccc4c(c3)CC(C)N4C(C)=O)CC2)c1` (configuration not stated) as listed: Potency: inconclusive: 13 µM [falling, partial curve, poor fit]
